Reference: paper PMC2364652

Sequences of proteins named here, by UniProt entry; tags and fusion partners are left off. A change or cut given only in a name is not applied to a line headed by its entry.
UniProt O75791: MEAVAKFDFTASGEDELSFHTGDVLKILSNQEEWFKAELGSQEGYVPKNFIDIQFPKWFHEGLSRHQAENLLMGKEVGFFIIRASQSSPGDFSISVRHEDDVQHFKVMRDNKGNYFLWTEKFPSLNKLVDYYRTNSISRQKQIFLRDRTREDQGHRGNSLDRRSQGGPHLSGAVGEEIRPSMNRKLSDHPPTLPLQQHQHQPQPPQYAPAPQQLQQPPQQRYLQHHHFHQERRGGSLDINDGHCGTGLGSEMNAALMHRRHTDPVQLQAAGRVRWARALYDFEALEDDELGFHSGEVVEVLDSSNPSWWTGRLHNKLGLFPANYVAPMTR

Tests used:
[1] = target: GST fusion protein of the C-terminal Grap2 SH3 domain (human) (UniProt O75791); test: pull-down; BEAS-2B lysate in NP-40 lysis buffer incubated with GST fusion protein at 4°C for 2 hours, glutathione-Sepharose 4B beads, immunoblot; only the target purified
[2] = target: SH3 domain of Grap2 C-terminal (spot of the TranSignal SH3 domain array III) (human) (UniProt O75791); test: peptide or protein array; TranSignal SH3 domain array III (34 human SH3 domains spotted in duplicate); membrane incubated with 30 µg/ml AQP5 WT overnight; detected with HRP-conjugated FLAG antibody; both purified

binding [1]: binds
binding [2]: binds
Substance: full length wild-type AQP5 (aquaporin 5) (from UniProt P55064 1-265)

No constants are given. Whether binding was seen depends on the method and setting. Binding calls can cover weak binding; strength is not graded here. For some assays here: Binding seen in cells or lysates may run through a third protein.
